The list shows a part of the results. Repeats in this data set agree poorly, so a single value says little.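 A first-round screen of about ten thousand compounds sought those raising reporter output, using human embryonic kidney cells briefly transfected with a plasmid carrying a Renilla luciferase gene driven by the HSV-TK promoter.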

This assay deals with HEK 293FT. In words: log relative Renilla luciferase luminescence (reporter expression vs reference, reference not stated) (log (base not stated)); higher = higher recombinant reporter expression. As to conditions: 10 µM; time after transfection 48 h. The protocol: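 HEK 293FT cells transiently transfected with pRL-TK (Renilla luciferase) were treated with compounds at 10 uM and luminescence was read about 42 h later. Values are log relative Renilla luminescence (log base and reference not stated). Single-pass screen; 2080 natural products library.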
As for `CC(=O)c1cc2c(cc1O)OC(C)(C)C=C2` [Eupatoriochromene], the log is -0.109.

Regarding `C=C1CC[C@H]2C(C)(C)CCC[C@]2(C)[C@H]1/C=C/c1ccoc1` [Coronarin E], the log stood at 0.046.

On to `C=C1C(=O)[C@]23C[C@H]1C[C@@H](O)[C@H]2[C@]12CO[C@@H]4OC[C@](C)(CC[C@@H]1OC3=O)[C@@H]42` [Sculponeatin A], for which the log was -0.125.

As for `C=C(C)C(O)C(OCC)c1c(OC)ccc2ccc(=O)oc12` (stereo not given) [Murraxocin], the log was -0.177.

For `CC(C)c1cc2c(c(O)c1O)[C@@]13CCCC(C)(C)[C@@H]1[C@@H](O)[C@@H]2O[C@@H]3O` [6-Epidemethylesquirolin D], the log is -0.299.

These data come from the supplement of paper PMC7024190.
